Laboratory results: PubChem BioAssay AID1508588 (Peter MacCallum Cancer Centre, 2020)

- Screen: 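Genome-wide search for knock-downs that heighten vemurafenib action in melanoma cells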 (primary screen)
- System: human WM266.4 melanoma cells (BRAF V600 mutant)
- Knock-down reagent: siRNA pool against human genes, 40 nM
- Timing: 96 h from transfection to read-out
- Treatment: vemurafenib 300 nM (about IC25), added 48 h after transfection, for 48 h; comparison arm got DMSO vehicle only
- Measurement: 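Ratios to non-targeting siRNA for cell gain, counted as DAPI nuclei after minus before drug and averaged over two replicates, and for absorbance-read medium lactate per cell; both binned into fold-change classes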
- Scale: cell gain with vemurafenib: higher = more cell gain than with non-targeting siRNA; lactate per cell with vemurafenib: higher = more lactate made per cell
- Hit rule: 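a knock-down counts as enhancing when its fold-change classes with vehicle and with vemurafenib, taken together, show a stronger drug effect on cell gain or lactate per cell; exact class pairs not stated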
- Calls: active = enhances vemurafenib effect; inactive = no enhancement seen
In all, the deposit lists about 18,000 reagents; this is a random part of them. 790 of them (4.4%) count as active. 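Calls rest on a combination of fold-change classes in drug and vehicle arms, not all shown here.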

| gene | cell gain with vemurafenib | lactate per cell with vemurafenib | call |
| --- | --- | --- | --- |
| KCNJ9 (GeneID 3765) | 1.1 | 0.66 | inactive |
| SUGT1 (GeneID 10910) | 0.16 | 1.06 | inactive |
| FERRY3 (GeneID 57102) | 0.82 | 0.66 | inactive |
| NXNL1 (GeneID 115861) | 0.6 | 1.15 | inactive |
| ACSF3 (GeneID 197322) | 0.17 | -0.16 | active |
| PLEKHS1 (GeneID 79949) | 0 | 1.46 | inactive |
| H2AJ (GeneID 55766) | 0.5 | 1.99 | inactive |
| KCNRG (GeneID 283518) | 0.05 | 2.87 | inactive |
| MATN2 (GeneID 4147) | 0.13 | 0.3 | inactive |
| PCDH18 (GeneID 54510) | 1.23 | 0.6 | inactive |
| WASHC5 (GeneID 9897) | 0.98 | 0.3 | inactive |
| PI4KAP2 (GeneID 375133) | 0.34 | 1.58 | inactive |
| ATP4B (GeneID 496) | 0.45 | 0.89 | inactive |
| SMC3 (GeneID 9126) | 0.49 | 1.03 | inactive |
| ESM1 (GeneID 11082) | 0.85 | 0.74 | inactive |
| SLC51B (GeneID 123264) | 0.67 | 0.38 | inactive |
| PDZRN3 (GeneID 23024) | 1.14 | 0.7 | inactive |
| NTN4 (GeneID 59277) | 1.27 | 0.54 | inactive |
| TYW1 (GeneID 55253) | 0.83 | 0.65 | inactive |
| OR52J3 (GeneID 119679) | 0.28 | 1.15 | inactive |
| VTA1 (GeneID 51534) | 0.55 | 0.54 | inactive |
| DPP7 (GeneID 29952) | 0.02 | 1.27 | active |
| CDK7 (GeneID 1022) | 0.61 | 0.62 | inactive |
| POMC (GeneID 5443) | 1.03 | 0.9 | inactive |
| ADCYAP1 (GeneID 116) | 0.71 | 0.69 | inactive |
| PEMT (GeneID 10400) | 0.37 | 0.23 | inactive |
| PCOLCE2 (GeneID 26577) | 0.07 | 1.94 | inactive |
| MON1A (GeneID 84315) | 0.71 | 0.68 | inactive |
| HTATSF1 (GeneID 27336) | 0.48 | 1.31 | inactive |
| PROCA1 (GeneID 147011) | 0.15 | 0.58 | inactive |
| KRT37 (GeneID 8688) | 0.54 | 1.21 | inactive |
| CNKSR1 (GeneID 10256) | -0.16 | 4.47 | inactive |
| FAM178B (GeneID 51252) | 0.69 | 0.97 | inactive |
| THOC1 (GeneID 9984) | 0.49 | 1.65 | inactive |

2 of these entries, set out differently.
gene | cell gain with vemurafenib | lactate per cell with vemurafenib | call
FAM178B (GeneID 51252) | 0.69 | 0.97 | inactive
THOC1 (GeneID 9984) | 0.49 | 1.65 | inactive
